According to article PMC8716928:
No constants are given. Whether binding was seen depends on the method and setting. In cells and extracts the contact can be indirect. Tags and fused reporters may be left off the sequences shown.

Target: Fragment F109–221 of GvpF, split-GFP fusion (Halobacterium salinarum)
Experiment: split reporter; split-GFP (mGFP2) in Hfx. volcanii transformants, entire Gvp proteins and fragments (Figure 7); arrangement of the GFP portions not stated; relative fluorescence (rf) of cells against untransformed WR340

binding | Binder
no binding (tested: rf < 4) | MAQPDSSGLAEVLDRVLDKGVV (peptide, UniProt P08958 1-22) [Fragment A1–22 of GvpA, split-GFP fusion]
no binding (tested: rf < 4) | GvpA, entire protein, split-GFP fusion (protein, UniProt P08958 1-76) MAQPDSSGLAEVLDRVLDKGVVVDVWARVSLVGIEILTVEARVVAASVDTFLHYAEEIAKIEQAELTAGAEAAPEA
